# Some of the results follow. The data scatter; read single values as rough.
# By UniProt entry, the sequences of proteins in these tests, tags left out. Where a name states a change or a piece, a line headed by the entry shows the natural chain unless it says otherwise. Residues count along the entry.
# UniProt Q8IYQ7: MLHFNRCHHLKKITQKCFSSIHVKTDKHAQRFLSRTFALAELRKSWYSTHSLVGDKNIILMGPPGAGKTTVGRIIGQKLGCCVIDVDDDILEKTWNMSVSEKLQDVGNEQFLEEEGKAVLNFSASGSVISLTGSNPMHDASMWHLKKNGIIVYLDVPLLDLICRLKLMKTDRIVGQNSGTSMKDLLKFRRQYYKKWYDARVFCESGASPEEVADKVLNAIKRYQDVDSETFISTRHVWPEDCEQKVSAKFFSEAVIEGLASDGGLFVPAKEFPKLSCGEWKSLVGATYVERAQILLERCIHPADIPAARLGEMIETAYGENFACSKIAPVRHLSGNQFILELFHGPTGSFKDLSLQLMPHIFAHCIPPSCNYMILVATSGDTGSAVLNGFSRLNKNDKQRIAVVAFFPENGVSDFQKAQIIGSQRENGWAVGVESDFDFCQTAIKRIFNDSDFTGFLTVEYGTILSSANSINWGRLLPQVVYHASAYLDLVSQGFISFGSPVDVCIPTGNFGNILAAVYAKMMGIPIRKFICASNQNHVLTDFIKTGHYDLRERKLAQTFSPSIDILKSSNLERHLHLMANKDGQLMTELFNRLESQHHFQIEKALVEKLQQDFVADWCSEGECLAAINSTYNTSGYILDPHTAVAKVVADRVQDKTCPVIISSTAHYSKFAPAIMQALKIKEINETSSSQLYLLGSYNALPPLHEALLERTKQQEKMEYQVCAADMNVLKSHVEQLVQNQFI
# UniProt Q96FV9: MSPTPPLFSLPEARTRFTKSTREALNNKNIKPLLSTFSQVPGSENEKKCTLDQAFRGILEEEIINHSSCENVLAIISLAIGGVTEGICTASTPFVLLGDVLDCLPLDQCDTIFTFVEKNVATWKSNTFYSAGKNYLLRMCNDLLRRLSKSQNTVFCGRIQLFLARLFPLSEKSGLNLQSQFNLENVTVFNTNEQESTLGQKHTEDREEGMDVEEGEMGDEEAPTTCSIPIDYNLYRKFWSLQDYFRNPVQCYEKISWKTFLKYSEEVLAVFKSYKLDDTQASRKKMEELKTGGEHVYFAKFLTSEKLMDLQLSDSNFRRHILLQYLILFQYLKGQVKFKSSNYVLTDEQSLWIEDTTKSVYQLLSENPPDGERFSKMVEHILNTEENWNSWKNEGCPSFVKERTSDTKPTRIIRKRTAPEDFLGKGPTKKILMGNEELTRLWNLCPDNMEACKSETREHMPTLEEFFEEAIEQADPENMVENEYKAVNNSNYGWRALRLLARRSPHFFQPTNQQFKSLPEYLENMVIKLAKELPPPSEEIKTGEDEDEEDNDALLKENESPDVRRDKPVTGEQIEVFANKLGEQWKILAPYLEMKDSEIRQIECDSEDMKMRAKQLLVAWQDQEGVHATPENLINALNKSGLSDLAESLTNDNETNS
# UniProt Q9UGI8: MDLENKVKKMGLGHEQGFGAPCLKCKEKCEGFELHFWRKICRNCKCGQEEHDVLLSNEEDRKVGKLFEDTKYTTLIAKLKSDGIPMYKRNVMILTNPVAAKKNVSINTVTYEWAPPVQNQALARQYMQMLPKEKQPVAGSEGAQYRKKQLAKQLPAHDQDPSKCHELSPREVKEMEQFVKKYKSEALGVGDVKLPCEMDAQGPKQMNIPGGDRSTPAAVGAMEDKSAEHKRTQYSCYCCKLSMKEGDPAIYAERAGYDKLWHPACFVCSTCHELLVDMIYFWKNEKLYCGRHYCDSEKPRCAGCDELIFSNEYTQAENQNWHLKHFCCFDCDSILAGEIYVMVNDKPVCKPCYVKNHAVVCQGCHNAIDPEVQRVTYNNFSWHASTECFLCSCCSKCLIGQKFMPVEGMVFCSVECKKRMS
# UniProt O95359, 2566-2590: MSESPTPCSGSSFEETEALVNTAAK
# UniProt O95359, 2201-2222: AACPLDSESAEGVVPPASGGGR
# UniProt O60343: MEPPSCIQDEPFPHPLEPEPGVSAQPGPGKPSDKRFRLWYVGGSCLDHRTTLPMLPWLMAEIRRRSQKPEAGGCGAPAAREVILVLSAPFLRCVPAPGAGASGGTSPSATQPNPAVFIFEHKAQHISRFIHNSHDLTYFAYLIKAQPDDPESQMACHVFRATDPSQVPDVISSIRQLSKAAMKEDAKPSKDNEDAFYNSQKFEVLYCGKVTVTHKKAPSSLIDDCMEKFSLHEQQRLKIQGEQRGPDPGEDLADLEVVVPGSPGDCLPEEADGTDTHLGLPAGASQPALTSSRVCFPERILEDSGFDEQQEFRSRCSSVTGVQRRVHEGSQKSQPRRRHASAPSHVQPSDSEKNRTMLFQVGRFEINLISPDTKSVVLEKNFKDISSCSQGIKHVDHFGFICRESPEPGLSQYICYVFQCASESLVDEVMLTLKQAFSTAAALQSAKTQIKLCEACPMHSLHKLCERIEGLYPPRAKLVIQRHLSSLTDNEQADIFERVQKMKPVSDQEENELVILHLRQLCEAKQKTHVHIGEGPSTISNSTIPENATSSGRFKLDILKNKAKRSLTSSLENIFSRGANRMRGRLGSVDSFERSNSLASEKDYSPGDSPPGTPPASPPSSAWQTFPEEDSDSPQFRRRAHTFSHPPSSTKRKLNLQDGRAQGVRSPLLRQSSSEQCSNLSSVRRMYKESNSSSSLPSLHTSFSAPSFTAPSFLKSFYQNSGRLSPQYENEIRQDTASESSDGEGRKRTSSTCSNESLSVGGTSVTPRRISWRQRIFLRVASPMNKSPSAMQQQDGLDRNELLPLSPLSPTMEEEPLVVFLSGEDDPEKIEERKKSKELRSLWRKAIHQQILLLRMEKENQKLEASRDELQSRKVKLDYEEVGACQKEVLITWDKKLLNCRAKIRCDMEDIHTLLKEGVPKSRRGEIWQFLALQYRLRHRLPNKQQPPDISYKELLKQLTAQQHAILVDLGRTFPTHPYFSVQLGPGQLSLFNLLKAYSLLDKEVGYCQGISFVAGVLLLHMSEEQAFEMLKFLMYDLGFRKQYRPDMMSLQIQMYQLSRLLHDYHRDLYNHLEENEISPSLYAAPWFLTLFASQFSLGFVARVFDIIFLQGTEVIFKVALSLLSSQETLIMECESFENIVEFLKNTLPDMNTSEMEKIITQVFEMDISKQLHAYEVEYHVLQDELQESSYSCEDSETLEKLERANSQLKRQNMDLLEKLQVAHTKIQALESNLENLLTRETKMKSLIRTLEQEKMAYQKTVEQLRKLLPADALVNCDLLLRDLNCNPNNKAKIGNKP
# UniProt O75410, 113-133: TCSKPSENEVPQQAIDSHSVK
# UniProt Q9UK61: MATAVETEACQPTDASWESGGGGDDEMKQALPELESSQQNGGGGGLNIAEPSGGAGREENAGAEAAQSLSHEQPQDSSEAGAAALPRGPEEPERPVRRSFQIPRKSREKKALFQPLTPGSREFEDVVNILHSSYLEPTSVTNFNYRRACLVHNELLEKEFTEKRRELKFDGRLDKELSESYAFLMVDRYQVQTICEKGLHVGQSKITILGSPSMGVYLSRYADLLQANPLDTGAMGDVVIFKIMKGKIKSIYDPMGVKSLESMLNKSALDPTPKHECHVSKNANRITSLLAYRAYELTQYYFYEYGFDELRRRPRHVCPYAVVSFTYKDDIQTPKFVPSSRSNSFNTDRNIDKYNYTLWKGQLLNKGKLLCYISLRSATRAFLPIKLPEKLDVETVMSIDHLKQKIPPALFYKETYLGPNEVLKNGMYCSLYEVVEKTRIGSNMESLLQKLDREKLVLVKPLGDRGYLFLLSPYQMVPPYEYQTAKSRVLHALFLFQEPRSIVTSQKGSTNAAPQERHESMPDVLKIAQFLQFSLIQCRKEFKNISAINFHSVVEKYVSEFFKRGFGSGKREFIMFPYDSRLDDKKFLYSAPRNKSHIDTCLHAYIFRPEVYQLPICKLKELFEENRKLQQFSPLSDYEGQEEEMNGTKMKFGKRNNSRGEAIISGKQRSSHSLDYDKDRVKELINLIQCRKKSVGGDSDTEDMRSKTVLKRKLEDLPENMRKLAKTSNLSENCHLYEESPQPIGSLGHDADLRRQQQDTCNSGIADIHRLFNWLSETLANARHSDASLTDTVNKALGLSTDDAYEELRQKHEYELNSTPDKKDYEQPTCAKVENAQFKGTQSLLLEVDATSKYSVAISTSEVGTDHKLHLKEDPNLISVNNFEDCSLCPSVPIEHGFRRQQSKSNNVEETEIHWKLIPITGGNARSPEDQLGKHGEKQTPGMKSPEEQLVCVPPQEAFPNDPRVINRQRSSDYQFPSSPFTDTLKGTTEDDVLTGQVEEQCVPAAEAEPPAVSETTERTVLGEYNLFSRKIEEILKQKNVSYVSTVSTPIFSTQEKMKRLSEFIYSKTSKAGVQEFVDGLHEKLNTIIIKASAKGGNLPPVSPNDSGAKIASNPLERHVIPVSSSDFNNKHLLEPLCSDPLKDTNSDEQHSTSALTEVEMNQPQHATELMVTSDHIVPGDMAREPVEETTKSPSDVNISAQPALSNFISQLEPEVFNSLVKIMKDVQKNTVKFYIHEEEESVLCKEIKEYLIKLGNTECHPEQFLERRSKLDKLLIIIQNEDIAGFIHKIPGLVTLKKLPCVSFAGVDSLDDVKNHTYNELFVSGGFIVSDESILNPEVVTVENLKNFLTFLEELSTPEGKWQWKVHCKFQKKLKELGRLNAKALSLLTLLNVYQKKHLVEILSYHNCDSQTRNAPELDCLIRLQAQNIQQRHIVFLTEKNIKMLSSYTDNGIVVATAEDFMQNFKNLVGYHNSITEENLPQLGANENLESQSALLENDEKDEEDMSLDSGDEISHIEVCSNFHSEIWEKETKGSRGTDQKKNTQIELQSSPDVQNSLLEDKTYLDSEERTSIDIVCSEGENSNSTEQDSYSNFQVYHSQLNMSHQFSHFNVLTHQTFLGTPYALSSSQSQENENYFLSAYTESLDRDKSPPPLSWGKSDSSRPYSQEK
# UniProt Q86TI0: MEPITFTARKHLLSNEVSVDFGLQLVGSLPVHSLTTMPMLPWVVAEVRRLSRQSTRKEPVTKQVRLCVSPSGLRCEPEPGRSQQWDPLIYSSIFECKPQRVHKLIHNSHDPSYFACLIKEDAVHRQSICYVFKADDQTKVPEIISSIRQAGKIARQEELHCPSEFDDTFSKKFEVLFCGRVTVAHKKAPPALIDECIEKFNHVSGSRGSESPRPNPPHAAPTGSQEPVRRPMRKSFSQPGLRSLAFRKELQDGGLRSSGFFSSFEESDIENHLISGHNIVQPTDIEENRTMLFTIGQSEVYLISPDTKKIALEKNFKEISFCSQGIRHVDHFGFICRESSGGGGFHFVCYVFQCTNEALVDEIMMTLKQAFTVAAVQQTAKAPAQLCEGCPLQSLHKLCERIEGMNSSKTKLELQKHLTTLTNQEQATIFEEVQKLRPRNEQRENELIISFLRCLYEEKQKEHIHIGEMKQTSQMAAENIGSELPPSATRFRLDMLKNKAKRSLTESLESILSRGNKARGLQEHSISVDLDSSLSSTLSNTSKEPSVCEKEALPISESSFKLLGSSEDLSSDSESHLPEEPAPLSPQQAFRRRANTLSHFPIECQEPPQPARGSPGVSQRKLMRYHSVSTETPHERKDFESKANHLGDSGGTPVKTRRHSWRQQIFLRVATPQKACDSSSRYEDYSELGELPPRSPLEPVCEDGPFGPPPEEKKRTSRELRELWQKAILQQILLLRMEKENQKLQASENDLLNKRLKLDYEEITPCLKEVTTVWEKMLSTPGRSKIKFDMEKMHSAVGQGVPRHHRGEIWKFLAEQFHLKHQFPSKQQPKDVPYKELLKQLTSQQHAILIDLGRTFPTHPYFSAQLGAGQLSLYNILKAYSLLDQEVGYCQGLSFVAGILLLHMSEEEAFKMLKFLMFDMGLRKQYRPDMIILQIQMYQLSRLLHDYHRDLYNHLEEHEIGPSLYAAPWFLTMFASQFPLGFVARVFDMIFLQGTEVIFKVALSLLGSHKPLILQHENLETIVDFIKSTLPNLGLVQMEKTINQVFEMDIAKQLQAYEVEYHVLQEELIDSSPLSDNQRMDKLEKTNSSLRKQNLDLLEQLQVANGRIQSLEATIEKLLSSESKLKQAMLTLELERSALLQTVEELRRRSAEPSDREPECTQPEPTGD
# UniProt Q00059: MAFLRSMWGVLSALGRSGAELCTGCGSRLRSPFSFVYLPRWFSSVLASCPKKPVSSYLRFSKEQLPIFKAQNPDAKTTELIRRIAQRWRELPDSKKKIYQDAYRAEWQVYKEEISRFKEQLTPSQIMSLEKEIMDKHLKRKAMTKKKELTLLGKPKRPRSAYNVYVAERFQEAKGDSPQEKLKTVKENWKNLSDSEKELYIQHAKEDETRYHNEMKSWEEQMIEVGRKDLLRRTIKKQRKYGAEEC
# UniProt Q5VWN6, 605-629: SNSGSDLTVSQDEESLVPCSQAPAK
# UniProt Q15560: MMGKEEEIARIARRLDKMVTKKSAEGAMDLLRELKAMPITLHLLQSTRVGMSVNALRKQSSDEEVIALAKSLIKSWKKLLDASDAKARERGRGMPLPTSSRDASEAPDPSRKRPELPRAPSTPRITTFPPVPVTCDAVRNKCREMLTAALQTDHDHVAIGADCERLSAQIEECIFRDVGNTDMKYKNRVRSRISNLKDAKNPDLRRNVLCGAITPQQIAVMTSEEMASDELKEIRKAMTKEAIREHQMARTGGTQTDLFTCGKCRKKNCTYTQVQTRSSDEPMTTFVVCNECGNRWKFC
# Compound: ClCC(=O)N[C@@H]1CCCc2ccccc12
# Test: log2 mean competition ratio of IA-DTB cysteine labelling (DMSO/compound) (log2 ratio); higher = stronger cysteine engagement by compound
# Conditions: 50 µM; treatment time: 4 h; cell line lysate: HEK293T
# Procedure: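 IA-DTB competitive cysteine chemoproteomics in HEK293T RIPA lysate. Lysates were treated with compound 29 or 30 at 50 or 200 µM for 4 h, then IA-DTB (500 µM, 1 h), trypsin-digested, NeutrAvidin-enriched and analysed by diaPASEF. Competition ratio = intensity DMSO / intensity compound (n=4 treated, n=64 DMSO); binding: mean log2 CR ≥ 1 and p ≤ 0.05 plus QC filters. Target is the cysteine site.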
row,Target,log2 mean competition ratio
1,TFIP11 C445 (UniProt Q9UBB9),-0.0978
2,TAF2 C767 (UniProt Q6P1X5),0.189
3,TACC3 C20,-0.0828
4,THNSL1 C299 (UniProt Q8IYQ7),0.275
5,THADA C683 (UniProt Q6YHU6),0.134
6,THNSL1 C324 (UniProt Q8IYQ7),0.0722
7,TBP C262 (UniProt P20226),0.241
8,THOC1 C251 (UniProt Q96FV9),-0.193
9,TES C46 (UniProt Q9UGI8),-0.083
10,TACC2 C2573 (UniProt O95359),-0.384
11,TACC2 C2203 (UniProt O95359),0.2
12,TBC1D4 C906 (UniProt O60343),-0.172
13,TACC1 C114 (UniProt O75410),0.578
14,TAF5L C188 (UniProt O75529),-0.1
15,TASOR C761 (UniProt Q9UK61),-0.431
16,SZT2 C1152 (UniProt Q5T011),-0.427
17,TGFBRAP1 C582 (UniProt Q8WUH2),-0.0783
18,TGDS C5 (UniProt O95455),-0.183
19,TACC1 C467 (UniProt O75410),0.0117

row,Target,log2 mean competition ratio
1,TANGO6 C427 (UniProt Q9C0B7),-0.161
2,THOC7 C90 (UniProt Q6I9Y2),-0.127
3,TBC1D4 C316 (UniProt O60343),0.176
4,TANK C318 (UniProt Q92844),0.055
5,TCP1 C236 (UniProt P17987),0.393
6,TBC1D1 C766 (UniProt Q86TI0),-0.198
7,TBC1D1 C67 (UniProt Q86TI0),0.112
8,TARDBP C50,0.127
9,THOC1 C396 (UniProt Q96FV9),0.0853
10,TFAM C246 (UniProt Q00059),-0.146
11,TES C22 (UniProt Q9UGI8),-0.0185
12,TET2 C332 (UniProt Q6N021),0.0467
13,TASOR2 C623 (UniProt Q5VWN6),-0.626
14,TEDC2 C417 (UniProt Q7L2K0),-0.0596
15,TASOR C1260 (UniProt Q9UK61),-0.247
16,TCEA2 C269 (UniProt Q15560),-0.14
17,TBX2 C311,0.266
18,TAB2 C608 (UniProt Q9NYJ8),0.055

# Same assay, conditions: 200 µM; treatment time: 4 h; cell line lysate: HEK293T
row,Target,log2 mean competition ratio
1,TFIP11 C445 (UniProt Q9UBB9),0.119
2,TAF2 C767 (UniProt Q6P1X5),-0.451
3,TACC3 C20,-0.0699
4,THNSL1 C299 (UniProt Q8IYQ7),-0.384
5,THADA C683 (UniProt Q6YHU6),0.154
6,THNSL1 C324 (UniProt Q8IYQ7),0.14
7,TBP C262 (UniProt P20226),0.0323
8,THOC1 C251 (UniProt Q96FV9),-0.245
9,TES C46 (UniProt Q9UGI8),-0.0686
10,TACC2 C2573 (UniProt O95359),-0.548
11,TACC2 C2203 (UniProt O95359),-0.296
12,TBC1D4 C906 (UniProt O60343),0.0612
13,TACC1 C114 (UniProt O75410),-0.0926
14,TAF5L C188 (UniProt O75529),0.308
15,TASOR C761 (UniProt Q9UK61),0.495
16,SZT2 C1152 (UniProt Q5T011),-0.193
17,TGFBRAP1 C582 (UniProt Q8WUH2),-0.348
18,TGDS C5 (UniProt O95455),-0.711
19,TACC1 C467 (UniProt O75410),0.184

row,Target,log2 mean competition ratio
1,TANGO6 C427 (UniProt Q9C0B7),-0.19
2,THOC7 C90 (UniProt Q6I9Y2),-0.31
3,TBC1D4 C316 (UniProt O60343),0.155
4,TANK C318 (UniProt Q92844),0.294
5,TCP1 C236 (UniProt P17987),-0.112
6,TBC1D1 C766 (UniProt Q86TI0),0.457
7,TBC1D1 C67 (UniProt Q86TI0),0.273
8,TARDBP C50,0.283
9,THOC1 C396 (UniProt Q96FV9),-0.252
10,TFAM C246 (UniProt Q00059),0.142
11,TES C22 (UniProt Q9UGI8),0.0627
12,TET2 C332 (UniProt Q6N021),0.0666
13,TASOR2 C623 (UniProt Q5VWN6),0.0569
14,TEDC2 C417 (UniProt Q7L2K0),0.315
15,TASOR C1260 (UniProt Q9UK61),0.085
16,TCEA2 C269 (UniProt Q15560),0.615
17,TBX2 C311,-0.0697
18,TAB2 C608 (UniProt Q9NYJ8),0.0976

# Reference: the supplement of paper PMC11732987, “Enantioselective OTUD7B fragment discovery through chemoproteomics screening and high-throughput optimisation” (Communications Chemistry, 2025)
